Test results reported in US11945858B2, “Antibodies and antibody fragments against HNAV1.7 channel and their use in pain and cancer indications” (NATIONAL RESEARCH COUNCIL OF CANADA, priority 2018, dated 2024).
Some entries share one result that the patent states for a list of compounds. Some ranges recur; such a range may be that of the whole group of compounds.

How the values were obtained:
FC5DIE3IR [1] = molecular target: T1, FC5DIE3IR (Homo sapiens, UniProt Q15858); assay: Phage ELISA of VHH colonies on FC5DIE3IR; format: binding; conditions: phage supernatant; A450
T1 construct: The supernatant was collected and loaded on a 5 ml MabSelect™ SuRe™ column; made in house; host or cells: CHO-3E7 (transient, pTT5 vector), purified from supernatant

FC5DIE3IR [2] = molecular target: T1, FC5DIE3IR; assay: Surface Plasmon Resonance for VHH antibodies, immobilized FC5DIE3IR; format: binding
Method: Surface Plasmon Resonance for VHH antibodies. For SPR experiments, IMAC-purified VHHs DI-D, DI-4, DI-16, DI-28 and DI-48 were passed through a Superdex 75 (GE Healthcare) column for SEC purification in HBS-EP+buffer (10 mM HEPES, pH 7.4, containing 150 mM NaCl, 3 mM EDTA and 0.05% P20), connected to an AKTAPurifier (GE Healthcare) at a flow rate of 1 ml/min. Monomeric VHH fractions were collected and protein concentration determined by measuring A280 measurement. Using a Biacore T200 instrument (GE Healthcare), approximately 500-1000 RUs of FC5DIE3IR, FC5 and an irrelevant VHH (2A3-H4) were immobilized on a CM5 Series S sensor chip (GE Healthcare) at pH 4.0 using standard amine coupling according to the manufacturer's instructions (GE Healthcare). […] Surfaces were regenerated by washing with a 120 s pulse of 10 mM glycine pH 1.5. Data were analyzed with Biacore T200 Software v 3.0 and affinities determined using steady state binding or a 1:1 binding model.

B1: DI-A: VHH from phage-displayed LAC-M naïve library; SEQ ID NO: 32 (protein)
VHH: QAQVQLVESGGGLVQPGGSLRLSCAASGRTISSFTMGWFRQAPGAEREFVAAISRSGSSTVYAGSVKGRFTISRDNAKNTVYLQMNSLKPEDTAVYYCNAVITEPLYKTDDSYWGQGTQVTVSS
modifications: DI-A
Phage ELISA signal relative to background (FC5DIE3IR [1]): at least 3 × background

B2: DI-C: VHH from phage-displayed LAC-M naïve library; SEQ ID NO: 36 (protein)
VHH: QVKLEESGGGLVQPGESLRLSCVGSGFNFRIQAMAWFRQAPGKEREFVASISGSGATTDHADSVKGRFAISKDNARDTMYLQMNNLKPEDTAVYYCYAISQHVPPYHYWGQGTQVTVSS
modifications: DI-C
Phage ELISA signal relative to background (FC5DIE3IR [1]): at least 3 × background

B3: DI-D: anti-hNav1.7 VHH from phage-displayed LAC-M naïve library; SEQ ID NO: 38 (protein)
VHH: QVKLEESGGGLVQPGGSLKLSCVASGFAFSSAPMDWVRKAPGKDVEWLSTIESDQDHTIYYANSVKGRFTISRDDVQNILYLQMNDLKIEDTATYYCQKRGEKKTRGQGTQVTVSS
modifications: DI-D
Phage ELISA signal relative to background (FC5DIE3IR [1]): at least 3 × background

B4: DI-E: VHH from phage-displayed LAC-M naïve library; SEQ ID NO: 43 (protein)
VHH: QVKLEESGGGLVQPGGSLRLSCAASEFTFSSSWGHWVRQAPGKGLKWVSSINSGGEGTYYADSVKGRFTISRDNGKNTLYLEMNSLKSEDTAVYYCTSASGAWGQGIQVTVSS
modifications: DI-E
Phage ELISA signal relative to background (FC5DIE3IR [1]): at least 3 × background

B5: DI-H: VHH from phage-displayed LAC-M naïve library; SEQ ID NO: 45 (protein)
VHH: QVKLEESGGGLVQAGESLRLSCVNSGSTFSIYAMGWYRQAPGKQRELVAAISSVGRTNYADSVKGRFTISRAGAKNTVYLHMNNLKPEDTAVYSCITYYQNAMYFGQGTQVTVSS
modifications: DI-H
Phage ELISA signal relative to background (FC5DIE3IR [1]): at least 3 × background

B6: DI-4: VHH from FC5DIE3IR llama immune library; SEQ ID NO: 47 (protein)
VHH: QVQLVESGGGLVQPGGSLRLSCAASGFTFSNYWMYWVRQAPGKGLERVSSIYISGGNTYYADSVKGRFTISRDNAKNTLYLQMNSLKSEDTAVYYCVKGDTFGGMDYWGKGTQVTVSS
modifications: DI-4
Rmax (RU) (FC5DIE3IR [2]): 318-470 RU
Phage ELISA signal relative to background (FC5DIE3IR [1]): at least 3 × background

B7: DI-16: VHH from FC5DIE3IR llama immune library; SEQ ID NO: 49; clone DI-11 has identical sequence (protein)
VHH: QAQVQLVESGGGLVQAGGSLRLSCAASGRTVSSYTMGWFRQAPGKERRFVATVNSSGRGTHYADSVKGRFTISRDNAKNTVYLQMNSLKPEDTAVYYCAAAPYPDGSLGPGYDYWGQGTQVTVSS
modifications: DI-16
Rmax (RU) (FC5DIE3IR [2]): 318-470 RU
Phage ELISA signal relative to background (FC5DIE3IR [1]): at least 3 × background

B8: DI-28: VHH from FC5DIE3IR llama immune library; SEQ ID NO: 54 (protein)
VHH: QAQVQLVESGGGLVQAGGSLRLSCAASGRTFSSSGMGWFRQAPGKDRELVAGISWSGDSAYYANSVAGRFTISRDNINNTVYLQMNSLKPEDTAVYYCAARQGGRNYATSPREYDYWGQGTQVTVSS
modifications: DI-28
Rmax (RU) (FC5DIE3IR [2]): 318-470 RU
Phage ELISA signal relative to background (FC5DIE3IR [1]): at least 3 × background

B9: DI-48: VHH from FC5DIE3IR llama immune library; SEQ ID NO: 59 (protein)
VHH: QAQVQLVESGGGLVQAGGSLRLSCAASGRTFSTYVMGWFRQTPGKEREFVAGFSWSGDYAIYVNSVKGRFTISRDNAKNTVYLQMNSLRPEDTAVYYCAARQRGGYSGRSYYTGRNDYEYWGQGTQVTVSS
modifications: DI-48
Rmax (RU) (FC5DIE3IR [2]): 318-470 RU
